According to patent US20160310523A1, “USE OF OXYGEN-CONTAINING GAS SOURCE” (China Medical University, priority 2015, published 2016):

Assay: Blood gas analysis of urethane-anesthetized rats receiving different gas sources
Type: in vivo

## O=O [100% O2]
45 minutes of gas exposure
  pCO2: 48 mmHg
  pH: 7.3
  pO2: 361 mmHg
90 minutes of gas exposure
  pCO2: 52 mmHg
  pH: 7.4
  pO2: 442 mmHg
